Test results: article PMC9526732
These are yes or no findings as the source states them, for the method shown. Binding seen in cells or lysates may run through a third protein. Some binding calls cover weakened binding; strength is not graded here.

Sequences of proteins named here, by UniProt entry; tags and fusion partners are left off.
UniProt Q63046: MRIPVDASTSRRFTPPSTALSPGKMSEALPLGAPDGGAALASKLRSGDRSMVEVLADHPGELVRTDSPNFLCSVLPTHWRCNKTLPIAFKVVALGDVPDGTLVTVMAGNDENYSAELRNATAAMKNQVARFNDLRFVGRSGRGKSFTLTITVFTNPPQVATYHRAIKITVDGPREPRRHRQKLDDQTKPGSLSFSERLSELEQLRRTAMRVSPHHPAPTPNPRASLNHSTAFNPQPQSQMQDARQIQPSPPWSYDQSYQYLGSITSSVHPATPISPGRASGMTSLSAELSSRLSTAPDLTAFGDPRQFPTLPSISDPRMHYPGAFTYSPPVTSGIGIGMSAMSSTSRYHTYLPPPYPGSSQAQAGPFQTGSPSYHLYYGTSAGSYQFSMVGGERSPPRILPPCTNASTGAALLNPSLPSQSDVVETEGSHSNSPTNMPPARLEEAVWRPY

Biological target: runt related transcription factor 1 (RUNX1) (rat (endogenous in neural stem cells)) (UniProt Q63046)
Experiment: co-IP; lysate of normal rat NSCs in RIPA buffer with protease inhibitor; incubated with anti-RUNX1 antibody or IgG and Protein A/G PLUS-agarose beads for 12 h at 4 °C; precipitate analysed by immunoblotting

binding: binds
B1: β-catenin (protein, UniProt Q9WU82 1-781)
chain: MATQADLMELDMAMEPDRKAAVSHWQQQSYLDSGIHSGATTTAPSLSGKGNPEEEDVDTSQVLYEWEQGFSQSFTQEQVADIDGQYAMTRAQRVRAAMFPETLDEGMQIPSTQFDAAHPTNVQRLAEPSQMLKHAVVNLINYQDDAELATRAIPELTKLLNDEDQVVVNKAAVMVHQLSKKEASRHAIMRSPQMVSAIVRTMQNTNDVETARCTAGTLHNLSHHREGLLAIFKSGGIPALVKMLGSPVDSVLFYAITTLHNLLLHQEGAKMAVRLAGGLQKMVALLNKTNVKFLAITTDCLQILAYGNQESKLIILASGGPQALVNIMRTYTYEKLLWTTSRVLKVLSVCSSNKPAIVEAGGMQALGPHLTDPSQRLVQNCLWTLRNLSDAATKQEGMEGLLGTLVQLLGSDDINVVTCAAGILSNLTCNNYKNKMMVCQVGGIEALVRTVLRAGDREDITEPAICALRHLTSRHQEAEMAQNAVRLHYGLPVVVKLLHPPSHWPLIKATVGLIRNLALCPANHAPLREQGAIPRLVQLLVRAHQDTQRRTSMGGTQQQFVEGVRMEEIVEGCTGALHILARDVHNRIVIRGLNTIPLFVQLLYSPIENIQRVAAGVLCELAQDKEAAEAIEAEGATAPLTELLHSRNEGVATYAAAVLFRMSEDKPQDYKKRLSVELTSSLFRTEPMAWNETADLGLDIGAQGEALGYRQDDPSYRSFHSGGYGQDALGMDPMMEHEMGGHHPGADYPVDGLPDLGHAQDLMDGLPPGDSNQLAWFDTDL
